Measurements reported in PubChem BioAssay AID720505 (Drosophila RNAi Screening Center, 2013)

Assay: 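Genes needed for store-operated calcium entry in fly cells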 (primary screen)
Cells: Drosophila S2R+ cells
Reagent: long dsRNA against Drosophila genes
Challenge: thapsigargin (2 µM) in calcium-free buffer to empty internal stores, then 2 mM calcium added back
Read-out: 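Fluo-4 signal in 384-well plates read on a FLIPR after thapsigargin (2 µM, calcium-free) store depletion and 2 mM calcium add-back; unnormalised mean endpoint per well; screen run twice, selected wells retested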
Scale: calcium signal and retest calcium signal: higher = more calcium entry after store depletion
Hit rule: 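About 1500 genes called as lowering calcium entry, by varying amounts, judged against per-plate control wells with STIM1 as positive and Rho1 as negative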
Meaning of the calls: active = called as lowering calcium entry; inactive = not called
In all, the deposit lists about 20,000 reagents; below is a random part of those with a known target gene and a result. Over the whole deposit, about 2,100 (10%) were called active. 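Raw plate signals without normalisation; calls rest on control-based scores that were not deposited; replicate 2 separates called from uncalled poorly.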 The numbers tell different reagents against one gene apart. Names joined by + are all predicted targets of the reagent. No sequences are given here. Not stated in the record: the amount of reagent, the time to read-out.

Target gene	dsRNA no.	calcium signal, replicate 1	calcium signal, replicate 2	retest calcium signal, replicate 1	retest calcium signal, replicate 2	outcome
NimC3	1	98.5	119			inactive
NimC3	2	98.2	98.2			inactive
CG5886	1	100	91.2			inactive
CG14219	1	141	91.5			inactive
Tsp66A + CG42661 + CG42660	1	130	87			inactive
eIF4H1	1	129	94.1			inactive
CG31913	1	98.2	100			inactive
CG42500	1	92.3	108			inactive
zfh1	1	66.5	45.1			active
zfh1	2	120	176			inactive
RpL10Ab	1	54.6	43.2			active
dpr5	1	165	127			inactive
CG13086	1	149	108			inactive
Frq2	1	116	118			inactive
CG2444	1	121	81.3			inactive
CG17991	1	143	146			inactive
CG11570	1	124	119			inactive
CG17930	1	121	229			inactive
Mur82C	1	113	127	115	79.5	inactive
CG7695	1	159	118			inactive
Dbp21E2	1	153	233			inactive
emei	1	131	98.1	5879	86.8	inactive
emei	2	43	111			active
CG7728	1	76.4	87.9			inactive
bark	1	72.8	116			active
Vha36-1	1	76.8	87.6			active
U2af50	1	120	130			inactive
U2af50	2	88	90.4			inactive
Or23a	1	162	153			inactive
CG32264	1	88.8	122			inactive
CG32264	2	102	93.7			inactive
CG32264	3	104	109	114	86.7	inactive
CG32264	4	88.5	155			inactive
ath	1	148	174			inactive
CG3529	1	125	101			inactive
Dek	1	113	90.3			inactive
CG33331 + CG33332	1	178	198			inactive
CG17821	1	189	160			inactive
Aos1	1	128	97.2			inactive
CG14238	1	107	85.2			inactive
CG5707	1	113	136			inactive
CG7443	1	123	111			inactive
CG15701	1	154	135			inactive
Vps2	1	97.3	181			inactive
nej	1	64	104			active
nej	2	121	179			inactive
CG15452	1	151	91.3			inactive
tty	1	138	107			inactive
dyl	1	92.4	88.5			inactive
dyl	2	106	135			inactive
CG34205	1	187	90.2			inactive
CG34205	2	106	87.3			inactive
Lrpprc2	1	51.2	77.2			active
CG11857	1	253	137			inactive
CG8509	1	181	119			inactive
Sytalpha	1	130	95.6			inactive
Gfrl	1	180	95.5			inactive
Gfrl	2	118	245			inactive
Gfrl	3	206	169			inactive
Gfrl	4	151	205			inactive
Gfrl	5	132	114			inactive
Nep3	1	75.6	144			active
otp	1	162	105			inactive
otp	2	188	116			inactive
Ent1	1	123	160			inactive
Obp19c	1	98.9	102			inactive
Ufsp2	1	124	86.9			inactive
asRNA:CR43470 + CG14830	1	71.7	29.4			inactive
ocn	1	198	143			inactive
na	1	115	150			inactive
TM9SF3	1	106	78.7			inactive
CG30431	1	140	106			inactive
CG30431	2	169	264			inactive
hbt	1	285	123			inactive
hbt	2	96	125			inactive
CG9664	1	138	148			inactive
bs	1	41.1	109	194	71.4	active
bs	2	110	79.4			inactive
CG4199	1	112	122			inactive
CG4199	2	103	95.3			inactive
mRpS28	1	172	152			inactive
exp	1	87.6	168			inactive
CG10814	1	165	131			inactive
